This is an account of results in PMC8683389, “The monofunctional CO dehydrogenase CooS is essential for growth of Thermoanaerobacter kivui on carbon monoxide” (Extremophiles, 2021).

By UniProt entry, the sequences of proteins in these tests, tags left out. Where a name states a change or a piece, a line headed by the entry shows the natural chain unless it says otherwise.
UniProt A0A097AQC8: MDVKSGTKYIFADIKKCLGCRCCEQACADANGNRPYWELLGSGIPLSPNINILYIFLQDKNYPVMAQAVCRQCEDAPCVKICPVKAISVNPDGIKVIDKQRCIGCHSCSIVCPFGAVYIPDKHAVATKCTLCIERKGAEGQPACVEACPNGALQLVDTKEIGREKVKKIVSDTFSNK

This assay concerns the target T1, His-CooS, His-tagged monofunctional CO dehydrogenase CooS of Thermoanaerobacter kivui (Thermoanaerobacter kivui).
T1 sequence: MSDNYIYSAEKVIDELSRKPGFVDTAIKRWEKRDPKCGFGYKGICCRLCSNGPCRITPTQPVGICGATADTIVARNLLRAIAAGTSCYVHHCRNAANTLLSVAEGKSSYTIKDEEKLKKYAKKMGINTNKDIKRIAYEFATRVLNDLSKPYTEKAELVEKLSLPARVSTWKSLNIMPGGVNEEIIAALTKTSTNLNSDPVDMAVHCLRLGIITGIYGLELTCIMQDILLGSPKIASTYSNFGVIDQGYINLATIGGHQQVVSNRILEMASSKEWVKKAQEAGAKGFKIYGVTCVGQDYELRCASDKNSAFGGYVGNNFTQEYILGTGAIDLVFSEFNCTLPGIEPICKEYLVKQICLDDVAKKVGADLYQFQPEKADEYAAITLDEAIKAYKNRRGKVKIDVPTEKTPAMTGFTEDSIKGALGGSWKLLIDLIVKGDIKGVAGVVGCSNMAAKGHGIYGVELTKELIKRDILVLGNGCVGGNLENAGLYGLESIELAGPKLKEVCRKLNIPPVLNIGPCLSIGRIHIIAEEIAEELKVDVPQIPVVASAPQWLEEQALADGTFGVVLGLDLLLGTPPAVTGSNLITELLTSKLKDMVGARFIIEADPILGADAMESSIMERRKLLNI
Briefly: co-purification (Ni2+-NTA affinity chromatography, then SEC), SDS-PAGE; His-tagged protein produced in T. kivui, crude extract on Ni2+-NTA resin, then Superdex 200; strictly anoxic, room temperature, buffers A and B (50 mM Tris/HCl, 150 mM NaCl, 20 mM MgSO4, 20% glycerol, pH 7.5); co-purified protein seen on a Coomassie-stained 12% SDS gel.

These are yes or no findings as the source states them, for the method shown. Binding seen in cells or lysates may run through a third protein. Binding calls can cover weak binding; strength is not graded here. Sequences can lack the tags named with a protein.

Turning to “CooF1 of Thermoanaerobacter kivui, small iron-sulfur center containing protein (from UniProt A0A097AQC8)”, the binding result is reported as “binds”.
